Measurements published in the supplement of paper PMC10032668.
The list shows a part of the results. The list holds hits alone, and they repeat only in part.

Amino acid sequences for entries named in this document (tags omitted).
EIF3K, Q9UBQ5, UniProt Q9UBQ5, whole entry: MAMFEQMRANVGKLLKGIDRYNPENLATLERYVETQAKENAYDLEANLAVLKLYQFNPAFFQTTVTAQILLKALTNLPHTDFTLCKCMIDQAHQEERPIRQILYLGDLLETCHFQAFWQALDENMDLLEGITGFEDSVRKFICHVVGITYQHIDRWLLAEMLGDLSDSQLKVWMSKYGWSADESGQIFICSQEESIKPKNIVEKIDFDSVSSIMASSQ
ATP6V1A, P38606, UniProt P38606, whole entry: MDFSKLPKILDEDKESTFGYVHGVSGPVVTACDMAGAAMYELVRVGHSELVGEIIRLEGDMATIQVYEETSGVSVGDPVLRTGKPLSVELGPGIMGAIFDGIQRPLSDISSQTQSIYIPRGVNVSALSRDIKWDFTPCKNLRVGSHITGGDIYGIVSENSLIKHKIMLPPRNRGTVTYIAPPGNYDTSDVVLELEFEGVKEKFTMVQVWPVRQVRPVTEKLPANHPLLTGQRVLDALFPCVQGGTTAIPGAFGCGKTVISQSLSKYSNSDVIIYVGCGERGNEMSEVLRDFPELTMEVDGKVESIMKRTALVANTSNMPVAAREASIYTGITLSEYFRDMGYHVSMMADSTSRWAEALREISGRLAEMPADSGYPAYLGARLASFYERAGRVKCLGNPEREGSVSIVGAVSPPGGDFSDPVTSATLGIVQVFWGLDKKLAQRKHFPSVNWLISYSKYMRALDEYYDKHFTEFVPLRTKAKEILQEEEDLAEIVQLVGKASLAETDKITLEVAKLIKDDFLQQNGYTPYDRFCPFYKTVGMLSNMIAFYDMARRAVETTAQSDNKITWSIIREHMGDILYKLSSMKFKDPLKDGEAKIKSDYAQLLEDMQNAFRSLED
GTF2F2, P13984, UniProt P13984, whole entry: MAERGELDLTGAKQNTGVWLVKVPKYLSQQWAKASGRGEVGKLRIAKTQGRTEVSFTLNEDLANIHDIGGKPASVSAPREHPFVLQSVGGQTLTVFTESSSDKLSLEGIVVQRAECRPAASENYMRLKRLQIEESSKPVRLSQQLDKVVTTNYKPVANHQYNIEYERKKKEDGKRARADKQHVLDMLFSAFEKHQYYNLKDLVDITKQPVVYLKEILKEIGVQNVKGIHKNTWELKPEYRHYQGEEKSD
INTS7, Q9NVH2, UniProt Q9NVH2, whole entry: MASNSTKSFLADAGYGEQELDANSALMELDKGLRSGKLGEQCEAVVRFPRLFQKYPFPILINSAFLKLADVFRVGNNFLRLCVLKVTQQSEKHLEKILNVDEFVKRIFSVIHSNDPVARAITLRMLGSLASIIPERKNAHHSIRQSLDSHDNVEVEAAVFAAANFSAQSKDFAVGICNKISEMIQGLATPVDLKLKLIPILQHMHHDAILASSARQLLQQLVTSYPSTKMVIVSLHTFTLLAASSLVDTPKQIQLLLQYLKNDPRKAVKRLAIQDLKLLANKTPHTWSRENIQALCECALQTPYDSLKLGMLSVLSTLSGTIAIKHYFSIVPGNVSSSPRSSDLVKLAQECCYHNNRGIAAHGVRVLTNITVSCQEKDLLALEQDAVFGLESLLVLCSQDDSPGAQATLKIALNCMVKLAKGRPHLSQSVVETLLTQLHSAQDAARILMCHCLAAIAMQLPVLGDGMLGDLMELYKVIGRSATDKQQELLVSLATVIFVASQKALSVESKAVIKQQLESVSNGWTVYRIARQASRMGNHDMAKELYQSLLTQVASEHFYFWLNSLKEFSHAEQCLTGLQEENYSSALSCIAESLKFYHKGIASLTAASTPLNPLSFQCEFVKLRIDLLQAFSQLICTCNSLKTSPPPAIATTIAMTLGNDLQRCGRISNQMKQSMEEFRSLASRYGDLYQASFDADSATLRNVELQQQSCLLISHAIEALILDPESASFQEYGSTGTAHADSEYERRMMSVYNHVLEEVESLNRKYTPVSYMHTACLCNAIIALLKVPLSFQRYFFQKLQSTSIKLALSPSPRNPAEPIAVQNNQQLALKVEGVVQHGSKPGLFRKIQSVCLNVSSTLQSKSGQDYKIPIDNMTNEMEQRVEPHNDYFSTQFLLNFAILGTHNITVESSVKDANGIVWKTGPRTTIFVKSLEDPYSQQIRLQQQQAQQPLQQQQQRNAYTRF
MEN1, O00255, UniProt O00255, whole entry: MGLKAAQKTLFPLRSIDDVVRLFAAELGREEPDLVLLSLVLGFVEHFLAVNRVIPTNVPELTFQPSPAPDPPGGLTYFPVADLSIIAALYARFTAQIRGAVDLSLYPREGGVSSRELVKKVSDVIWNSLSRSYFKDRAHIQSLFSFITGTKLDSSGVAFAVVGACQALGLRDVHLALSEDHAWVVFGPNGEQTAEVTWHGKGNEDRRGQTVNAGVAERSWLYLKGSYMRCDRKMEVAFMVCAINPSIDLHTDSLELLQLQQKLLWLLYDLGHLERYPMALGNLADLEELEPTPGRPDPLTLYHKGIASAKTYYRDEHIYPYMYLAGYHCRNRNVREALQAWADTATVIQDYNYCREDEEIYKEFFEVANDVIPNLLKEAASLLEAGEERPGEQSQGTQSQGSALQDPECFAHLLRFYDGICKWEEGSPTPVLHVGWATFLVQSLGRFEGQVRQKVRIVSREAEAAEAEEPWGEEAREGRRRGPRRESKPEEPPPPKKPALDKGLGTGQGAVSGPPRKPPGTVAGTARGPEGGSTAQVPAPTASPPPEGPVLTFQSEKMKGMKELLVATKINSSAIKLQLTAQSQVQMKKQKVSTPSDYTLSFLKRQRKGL

B1: LINC01560 (peptide)
chain: LLQERGKAAEFYSRG
B2: EBAG9 (peptide)
chain: PGKHAASKAAFLREI

Key:
Experiment in all cases: PRISMA enrichment of interactor (LFQ) in peptide spot vs all other peptide spots (log2 fold change); higher = stronger / more specific binding of the interactor to the peptide
AQR, O60306 = molecular target: AQR, O60306
Description: (§1)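 PRISMA: 15-aa overlapping tiles (offset 8 aa) of 60 microproteins, plus SOS1/GLUT1 control peptides, were spot-synthesized on cellulose membranes in triplicate. Membranes were incubated with benzonase-treated HEK293T lysate, and bound proteins were identified by LC-MS/MS with LFQ. Enrichment is the log2 fold change of each protein in one spot versus all other spots. Only interactors passing the significance cutoff are listed.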

ARGLU1, Q9NWB6 = molecular target: ARGLU1, Q9NWB6
Description: as §1

CSNK2A1, P68400 = molecular target: CSNK2A1, P68400
Description: as §1

EIF3K, Q9UBQ5 = molecular target: EIF3K, Q9UBQ5
Description: as §1

HDGFL2, Q7Z4V5 = molecular target: HDGFL2, Q7Z4V5
Description: as §1

KIF2A, O00139 = molecular target: KIF2A, O00139
Description: as §1

NCAPG2, Q86XI2 = molecular target: NCAPG2, Q86XI2
Description: as §1

NCOA5, Q9HCD5 = molecular target: NCOA5, Q9HCD5
Description: as §1

NOC4L, Q9BVI4 = molecular target: NOC4L, Q9BVI4
Description: as §1

NOL9, Q5SY16 = molecular target: NOL9, Q5SY16
Description: as §1

POLR2A, P24928 = molecular target: POLR2A, P24928
Description: as §1

PRPS2, P11908 = molecular target: PRPS2, P11908
Description: as §1

RBM17, Q96I25 = molecular target: RBM17, Q96I25
Description: as §1

RCN2, Q14257 = molecular target: RCN2, Q14257
Description: as §1

hCG_2014768 = molecular target: hCG_2014768
Description: as §1

APOB, P04114 = molecular target: APOB, P04114
Description: as §1

ATP6V1A, P38606 = molecular target: ATP6V1A, P38606
Description: as §1

CTBP2, P56545 = molecular target: CTBP2, P56545
Description: as §1

FAR1, Q8WVX9 = molecular target: FAR1, Q8WVX9
Description: as §1

GIGYF2, Q6Y7W6 = molecular target: GIGYF2, Q6Y7W6
Description: as §1

GTF2F2, P13984 = molecular target: GTF2F2, P13984
Description: as §1

HLA-B = molecular target: HLA-B
Description: as §1

INTS7, Q9NVH2 = molecular target: INTS7, Q9NVH2
Description: as §1

MEN1, O00255 = molecular target: MEN1, O00255
Description: as §1

MRFAP1, Q9Y605 = molecular target: MRFAP1, Q9Y605
Description: as §1

MRPL11, Q9Y3B7 = molecular target: MRPL11, Q9Y3B7
Description: as §1

OGFR, Q9NZT2 = molecular target: OGFR, Q9NZT2
Description: as §1

RO60, P10155 = molecular target: RO60, P10155
Description: as §1

TMEM256-PLSCR3 = molecular target: TMEM256-PLSCR3
Description: as §1

UBE2M, P61081 = molecular target: UBE2M, P61081
Description: as §1

USP15, Q9Y4E8 = molecular target: USP15, Q9Y4E8
Description: as §1

ZNF503, Q96F45 = molecular target: ZNF503, Q96F45
Description: as §1

ZNF622, Q969S3 = molecular target: ZNF622, Q969S3
Description: as §1

Binder | PRISMA enrichment of interactor (log2) (AQR, O60306) | PRISMA enrichment of interactor (log2) (ARGLU1, Q9NWB6) | PRISMA enrichment of interactor (log2) (CSNK2A1, P68400) | PRISMA enrichment of interactor (log2) (EIF3K, Q9UBQ5) | PRISMA enrichment of interactor (log2) (HDGFL2, Q7Z4V5) | PRISMA enrichment of interactor (log2) (KIF2A, O00139) | PRISMA enrichment of interactor (log2) (NCAPG2, Q86XI2) | PRISMA enrichment of interactor (log2) (NCOA5, Q9HCD5) | PRISMA enrichment of interactor (log2) (NOC4L, Q9BVI4) | PRISMA enrichment of interactor (log2) (NOL9, Q5SY16) | PRISMA enrichment of interactor (log2) (POLR2A, P24928) | PRISMA enrichment of interactor (log2) (PRPS2, P11908) | PRISMA enrichment of interactor (log2) (RBM17, Q96I25) | PRISMA enrichment of interactor (log2) (RCN2, Q14257) | PRISMA enrichment of interactor (log2) (hCG_2014768) | PRISMA enrichment of interactor (log2) (APOB, P04114) | PRISMA enrichment of interactor (log2) (ATP6V1A, P38606) | PRISMA enrichment of interactor (log2) (CTBP2, P56545) | PRISMA enrichment of interactor (log2) (FAR1, Q8WVX9) | PRISMA enrichment of interactor (log2) (GIGYF2, Q6Y7W6) | PRISMA enrichment of interactor (log2) (GTF2F2, P13984) | PRISMA enrichment of interactor (log2) (HLA-B) | PRISMA enrichment of interactor (log2) (INTS7, Q9NVH2) | PRISMA enrichment of interactor (log2) (MEN1, O00255) | PRISMA enrichment of interactor (log2) (MRFAP1, Q9Y605) | PRISMA enrichment of interactor (log2) (MRPL11, Q9Y3B7) | PRISMA enrichment of interactor (log2) (OGFR, Q9NZT2) | PRISMA enrichment of interactor (log2) (RO60, P10155) | PRISMA enrichment of interactor (log2) (TMEM256-PLSCR3) | PRISMA enrichment of interactor (log2) (UBE2M, P61081) | PRISMA enrichment of interactor (log2) (USP15, Q9Y4E8) | PRISMA enrichment of interactor (log2) (ZNF503, Q96F45) | PRISMA enrichment of interactor (log2) (ZNF622, Q969S3)
B1 | 4.33 | 5.16 | 5.41 | 4.49 | 5.18 | 6.25 | 4.92 | 6.75 | 4.31 | 4.27 | 6.02 | 4.27 | 6.43 | 4.98 | 7.08 | – | – | – | – | – | – | – | – | – | – | – | – | – | – | – | – | – | –
B2 | – | – | – | – | – | – | – | – | – | – | – | – | – | – | – | 4.18 | 5.41 | 5.01 | 4.42 | 5.41 | 5.29 | 5.47 | 5.45 | 4.51 | 5.82 | 4.41 | 3.87 | 5.64 | 5.57 | 6.77 | 4.13 | 4.62 | 7.5
